Library screening results

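Whole-cell assay for inhibitors of Mycobacterium tuberculosis growth, labelled Cornell in the record; the read-out is not stated. The concentration is filed as 10 mM, unlikely as a test dose, so the dose is not known. The record gives no direction; compounds strong in two other growth screens of this library score well above the rest, so higher reads as stronger inhibition. Of about 53,000 compounds tested this way, about 900 (1.7%) reached 50% or more in at least one test.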

Values are the deposited “Percent Effect”, in %.
The record does not define 0% and 100%; most values in the screen are far below 50% and negative numbers occur (in some assays of this library far below -100).
Compounds were drawn at random from those tested, without regard to their results.

| # | SMILES | percent effect |
|---|---|---|
| 1 | `COCC(=O)NCCCn1nc2ccccn2c1=O` | 4.318% |
| 2 | `CC(C)CN1CCCC2(CCN(c3ccc(C#N)cn3)C2)C1.O=C(O)C(F)(F)F` (configuration not stated) | 6.519% |
| 3 | `Cc1cc(C(=O)N[C@@H]2CCC[C@@H](N3CCOCC3)[C@@H]2O)no1` | 17.4% |
| 4 | `CN(Cc1cccs1)C(=O)c1ccc(=O)n(C)c1` | -4.689% |
| 5 | `Cc1ccc(C(=O)NC2CCCN(CC(N)=O)C2)c(=O)[nH]1` (configuration not stated) | -39.22% |
| 6 | `CNC(=O)c1ccc(C2CN(C(=O)c3scnc3C)CCO2)nc1` (configuration not stated) | -17.28% |
| 7 | `COc1ncnc(N(C)C)c1NC(=O)c1cscc1C` | -8.691% |
| 8 | `CCOC(=O)C1(Cc2ccc(Cl)cc2)CCN(Cc2ncc[nH]2)CC1` | 5.2% |
| 9 | `O=C(O)C(F)(F)F.[H][C@@]12CN(Cc3cnn(C)c3)CCC[C@]1(C(=O)O)CN(c1ncccn1)C2` | 6.421% |
| 10 | `CNC(=O)Nc1cc(-c2ccccc2C)nn1CCO` | -3.998% |
| 11 | `CSCCCN1C[C@H](NC(=O)c2cc(C3CC3)on2)[C@@H](C2CC2)C1` | -28.83% |
| 12 | `CCc1cc(N[C@H]2CCC[C@H]2CO)n2nc(C)c(C)c2n1` | 5.538% |
| 13 | `O=C(NCCCO)Nc1ccccc1` | 5.252% |
| 14 | `O=C(Nc1ccc(N2CCCC2)nc1)N1CCc2sccc2C1` | 27.19% |
| 15 | `Cc1cc(OCC(=O)N2CCCC(c3nccs3)C2)no1` (configuration not stated) | -15.05% |
| 16 | `CCC(=O)NCC(Cc1cccc(F)c1)n1cccc1` (configuration not stated) | 13.85% |
| 17 | `CC(C)CN1Cc2nc(N3CCCC(C)C3)ncc2C1=O` (configuration not stated) | -14.39% |
| 18 | `CCCc1noc(CCC(=O)Nc2cc(C(F)(F)F)c[nH]c2=O)n1` | 19.37% |
| 19 | `O=C(O)C(F)(F)F.[H][C@@]12C[C@H](C(=O)NCc3ccccc3)[C@@]([H])(CN(CCC(C)C)C1)O2` | 15.35% |
| 20 | `CN1CCN(C(=O)c2ccc(=O)n(C)c2)Cc2ccccc21` | 19.41% |
| 21 | `CCc1nc(C(=O)N2CCOCC2)nn1-c1ccccc1Cl` | -9.134% |
| 22 | `CC[C@@H]1N(Cc2nccs2)CCC[C@]12CCC(=O)N2C.O=C(O)C(F)(F)F` | -65.79% |
| 23 | `CC(C)c1nnc2n1CCN(C(=O)c1cnc(C3CC3)s1)C2` | 4.62% |
| 24 | `COC(=O)N1CCC(c2nnc(Cn3ccnc3)n2C)CC1` | 8.362% |
| 25 | `O=C(O)C(F)(F)F.[H][C@@]12CCN(CCc3ccccc3)C[C@@]1([H])[C@H](C(=O)NC1CCC1)CCO2` | 22.62% |
| 26 | `OCC1CCCN1c1cc(NCc2ccccn2)ncn1` (configuration not stated) | 21.68% |
| 27 | `CC(C)(O)c1cc(CC2(NCc3ccco3)COC2)no1` | -15.83% |
| 28 | `CNc1nc(C(=O)N2CCCn3nc(C(=O)N4CCCC4)cc3C2)cs1` | 13.25% |
| 29 | `COC(=O)C(CNC(=O)Nc1nncs1)Cc1cccc(C)c1` (configuration not stated) | 17.43% |
| 30 | `CS(=O)(=O)c1ccc(OCCNCc2cccc(Cl)c2)cc1` | -3.205% |
| 31 | `COc1ccccc1CC(=O)N(CCN1CCOCC1)Cc1ccco1` | 9.313% |
| 32 | `CN1CC[C@H](N(Cc2ccccc2)CC2CC2)C[C@H](O)C1` | -25.39% |
| 33 | `CC(C)c1nnc(NC(=O)CCc2cc(F)ccc2F)[nH]1` | 18.49% |
| 34 | `CC(=O)N1CCOCC2(CN(Cc3ccccn3)CCO2)C1.O=C(O)C(F)(F)F.O=C(O)C(F)(F)F` (configuration not stated) | 11.26% |
| 35 | `O=C(c1cc(Cn2ccc3ccccc32)[nH]n1)N1CCC[C@H]1CO` | 36.89% |
| 36 | `CN(Cc1nnc(C2CC2)n1C)C1CCN(Cc2ccc(F)cc2)C1` (configuration not stated) | 10.51% |
| 37 | `CCO[C@H]1C[C@@H](O)C12CCN(C(=O)CN1CCCCCC1=O)CC2` | -14.38% |
| 38 | `CN1CCCC(CNS(=O)(=O)N2CCc3ccccc3C2)C1` (configuration not stated) | -31.44% |
| 39 | `O=C(O)C(F)(F)F.O=C(O)C(F)(F)F.[H][C@@]12CN(Cc3cccs3)CCC[C@]1(C(=O)OCC)CN(CC(C)C)C2` | -13.73% |
| 40 | `Cn1c(NC(=O)CNC(=O)C2CCCC2)nc2cc(Cl)ccc21` | 34.97% |
| 41 | `CC(=O)N1CC2(CCN(C(=O)c3cccc4[nH]ccc34)CC2)C1` | 1.437% |
| 42 | `Cc1cc(NCC(=O)N(C)C(C)c2cccs2)c(C(N)=O)cc1F` (configuration not stated) | -0.9599% |
| 43 | `c1csc(-c2cc(CN3CCN(c4nccs4)CC3)no2)c1` | -1.085% |
| 44 | `Cc1ccc(F)c(S(=O)(=O)N2CCCC2c2ccncc2)c1` (configuration not stated) | 14.8% |
| 45 | `Cc1cc2cccc(C(=O)N3CC[C@](C)(O)[C@H](C)C3)c2o1` | -4.871% |
| 46 | `O=C(O)C(F)(F)F.O=C1NC2(CCN(CCO)CC2)CC1c1ccccc1` (configuration not stated) | 8.5% |
| 47 | `Cl.O=C1NC2(CCNCC2)CC1c1ccccc1` (configuration not stated) | 100.2% |
| 48 | `CCS(=O)(=O)N1CCC(C(=O)NC(Cc2ccsc2)c2nccs2)CC1` (configuration not stated) | -28.21% |
| 49 | `COc1ccccc1OCc1cc(C(=O)N2C[C@H](O)[C@@H](N(C)C)C2)n[nH]1` | 7.239% |
| 50 | `COc1cccc(CN2CCCCCC2c2sccc2C)c1O` (configuration not stated) | 53.6% |
| 51 | `O=C(NCC1CC1)C1CN(C(=O)c2cccc(Cl)c2)CC12CCOCC2` (configuration not stated) | -24.58% |
| 52 | `Cc1cc(Nc2nc(C)cs2)nc(C2CCCCN2CCO)n1` (configuration not stated) | -11.27% |
| 53 | `Cc1c(C(=O)N2CCC(O)(CN(C)C)C2)c2cc(O)ccc2n1C` (configuration not stated) | 14.36% |
| 54 | `COCCN1CCc2ncnc(OC(C)C)c2CC1.O=C(O)C(F)(F)F` | -3.654% |
| 55 | `Cc1nc(CC2CCCN(Cc3nc(N)c4ccccc4n3)C2)no1` (configuration not stated) | 24.18% |
| 56 | `[H][C@@]12C[C@@H](O)CN1C[C@H](Cc1ccccc1)N(Cc1cnc(CC)nc1)C2` | 42.85% |
| 57 | `Cn1cc(C(=O)NC2CCN(Cc3ccn(C)c(=O)c3)CC2)cn1` | -0.8403% |
| 58 | `CC(O)CN1CCN(C(=O)c2ccc(N(C)C)nn2)CC1` (configuration not stated) | 4.678% |
| 59 | `COc1c(C)cnc(CN2CCCC2c2noc(C)n2)c1C` (configuration not stated) | -16.92% |
| 60 | `CCOC(=O)c1cnn(C2CCN(C(=O)CC3CCCC3)CC2)c1N` | 22.98% |
| 61 | `CCc1c(C)nn2c(O)cc(C3CCN(C(=O)c4cnn(C)c4)C3)nc12` (configuration not stated) | 22.65% |
| 62 | `O=C(O)C(F)(F)F.[H][C@@]12COC[C@]1(COc1ccccn1)CN(C(=O)c1c(C)noc1C)C2` | 9.175% |
| 63 | `CCN(C)c1ncnc2c1CCN(C(=O)c1cccn1C)CC2` | -18.44% |
| 64 | `Cc1nc(N2CCOCC2)nc2c1CCN(Cc1ccsc1)CC2.O=C(O)C(F)(F)F` | 27.7% |
| 65 | `CCCc1nc(C(=O)NC(COC)c2ccnn2C)cs1` (configuration not stated) | 13.61% |
| 66 | `CCCN1CC2(CCN(C)CC2)CC1C(=O)NCCn1cccn1` (configuration not stated) | -12.59% |
| 67 | `c1cc(NC2CC3(CCN(Cc4cscn4)C3)C2)ncn1` (configuration not stated) | 33.23% |
| 68 | `CCc1[nH]c2c(CNC(=O)C3CCCN(C)C3)cc(C)cc2c1C` (configuration not stated) | -3.573% |
| 69 | `CCC(C)NC(=O)Cc1c(C)nc2c(c1C)c(=O)[nH]n2C` (configuration not stated) | 14.36% |
| 70 | `Cc1cnn(C2(C(=O)O)CCN(Cc3oc4ccccc4c3C)CC2)c1` | 11.33% |
| 71 | `[H][C@@]12OCCN(CCOC)[C@@]1([H])CC[C@H]2OCc1cccc(C)n1` | 16.21% |
| 72 | `Cc1c(NCC(C)(C)C)cccc1C(=O)NCc1ncnn1C` | 17.77% |
| 73 | `CC(=O)N1CCC(N2CCOC(CC3CCCCC3)C2)CC1` (configuration not stated) | 23.06% |
| 74 | `Cc1nccn1-c1ncccc1NC(=O)CCOCC(C)C` | 13.02% |
| 75 | `CS(=O)(=O)Cc1cccc(C(=O)N2CCCC(n3cccn3)C2)c1` (configuration not stated) | -8.271% |
| 76 | `O=C(O)C(F)(F)F.O=C(c1cnccn1)N1CCC(F)(F)C2(CCN(c3ccccn3)C2)C1` (configuration not stated) | -8.909% |
| 77 | `CC(C)NC(=O)c1cc2c(c3ccccc3n2C)n1C(=O)N(C)C` | 22.73% |
| 78 | `CCOCC1CN(C(=O)N2CCCC2)Cc2cnn(CC)c21` (configuration not stated) | -37.44% |
| 79 | `CC(c1ccc(C(F)(F)F)cc1)N1CCN(CCS(C)(=O)=O)CC1` (configuration not stated) | 18.67% |
| 80 | `Fc1cccc(N2CCOC3(CCCN(c4cnccn4)C3)C2)c1` (configuration not stated) | 19.86% |
| 81 | `O=C(NCC1(CO)CC1)c1cccc2ccccc12` | -7.25% |
| 82 | `CC(C)NC(=O)c1nc(Cn2c(C(F)(F)F)nc3ccccc32)no1` | -16.87% |
| 83 | `CN(C)C[C@@H]1CN(Cc2ccccc2C#N)C[C@@H]1CO` | -52.83% |
| 84 | `O=C(c1cccc(O)c1)N1C[C@@H](CN2CCCCC2)[C@@H](CO)C1` | -2.644% |
| 85 | `[H][C@]12CC[C@]([H])(CN(Cc3ccccc3)C1)N(C(=O)CNC(N)=O)C2` | 4.142% |
| 86 | `[H][C@@]12CS(=O)(=O)C[C@]1([H])N(C(=O)c1ccc(COC)o1)CCN2CC=C(C)C` | -7.819% |
| 87 | `O=C(c1onc2ccccc12)N1CCC2(CCCNC2)C1` (configuration not stated) | 26.74% |
| 88 | `c1ccc(Cn2cccn2)c(CN2CCC3(CCCNC3)C2)c1` (configuration not stated) | 4.609% |

The last 6 entries again:

CN(C)C[C@@H]1CN(Cc2ccccc2C#N)C[C@@H]1CO read -52.83%.
O=C(c1cccc(O)c1)N1C[C@@H](CN2CCCCC2)[C@@H](CO)C1 read -2.644%.
[H][C@]12CC[C@]([H])(CN(Cc3ccccc3)C1)N(C(=O)CNC(N)=O)C2 read 4.142%.
[H][C@@]12CS(=O)(=O)C[C@]1([H])N(C(=O)c1ccc(COC)o1)CCN2CC=C(C)C read -7.819%.
O=C(c1onc2ccccc12)N1CCC2(CCCNC2)C1 (configuration not stated) read 26.74%.
c1ccc(Cn2cccn2)c(CN2CCC3(CCCNC3)C2)c1 (configuration not stated) read 4.609%.

Measurements from “University of Dundee, Small-Polar-MMV Screening Library” (2021), ChEMBL document CHEMBL3988442.